Values quoted from earlier work, collected in patent publication US20020103251A1, “Cholesterol-lowering therapy” (priority 1997, published 2002).
For at least one compound, name, drawing or mass did not settle the structure.

Test system: patients with hypercholesterolemia and/or CHD
Details: cited from earlier work; for progression of atherosclerotic lesions: coronary and carotid arteries; for risk of coronary heart disease events: patients with hypercholesterolemia and/or CHD

Row | Structure (SMILES) | progression of atherosclerotic lesions | risk of coronary heart disease events
1 | CC[C@H](C)C(=O)O[C@H]1C[C@H](O)C=C2C=C[C@H](C)[C@H](CC[C@@H](O)C[C@@H](O)CC(=O)O)[C@H]21 [pravastatin] | slow the progression of atherosclerotic lesions | reduce the risk of coronary heart disease events
2 | CCC(C)(C)C(=O)O[C@H]1C[C@@H](C)C=C2C=C[C@H](C)[C@H](CC[C@@H]3C[C@@H](O)CC(=O)O3)[C@H]21 [simvastatin] | slow the progression of atherosclerotic lesions | reduce the risk of coronary heart disease events
